For orientation: AC50 means the concentration giving half of the maximal activity seen. Low readings indicate greater potency, high ones weaker potency.

The values below come from PubChem BioAssay AID2685 (National Center for Advancing Translational Sciences (NCATS), 2010).

Structures are written as SMILES. “And” between values parts separate entries of the source, which are not always exact repeats. Equal values may be shown once. The list shows a part of the results. Shown are side measurements of this screen, not its main read-out; they come without a call. Most of these compounds were active or inconclusive in the main read-out, so they are no random draw. Words in brackets tell the shape of the fitted curve; partial curves, single points and poor fits give uncertain potencies.

This assay can be described thus: qHTS Assay for Lipid Storage Modulators in Drosophila S3 Cells.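 As to cell number change: cells counted by Cell Tracker Red CMTPX staining in the red channel.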 Particulars: BODIPY lipid droplet fluorescence, 18-24 h; for cell number change: measured here: cell count max response, cells fed with added oleic acid. The method, boiled down:
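Drosophila S3 cells loaded with oleic acid (400 uM, as added) and compounds at several concentrations; lipid droplets imaged by 488-nm laser-scanning cytometry, 500–530 nm intensity and object ratio to cell channel. Percent activity normalized to 20 uM Triacsin C.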
For orientation: In qHTS, concentration-response curves come from the screen itself.

Where [1] appears, read: measured here: cell number channel AC50, cells fed with added oleic acid.
The mark [2] stands for this setting: measured here: lipid fluorescence (Fed channel) AC50, cells fed with added oleic acid.

As for `CN1CCN(S(=O)(=O)c2cccc(C#N)c2)C(c2ccccc2)C1` (stereo not drawn), the cell number change was -47.4%. The half-maximal activity concentration (AC50) under setting [1] is 20.6 µM [falling, single point].

Consider `CCN1C(=O)C(O)(CC(=O)/C=C/C=C/c2ccccc2)c2ccccc21` (stereo not drawn), for which the cell number change was 132%. Moreover, the AC50 under setting [1] is 4.61 µM [rising, full curve]. In addition, the AC50 under setting [2] is 3.66 µM [rising, full curve].

For `Cc1ccc(NS(=O)(=O)c2ccc(C(=O)N3CC(C)CC(C)C3)cc2)cc1` (stereo not drawn), the cell number change is 28.1%.

Take `Cc1ccc(NC(=O)c2ccco2)c(NC(=O)c2cccs2)c1`: under setting [2], the half-maximal activity concentration (AC50) is 0.58 µM [falling, single point].

Regarding `COc1ccccc1C(=O)NC(=O)COc1ccc(Cl)cc1Cl`, the AC50 under setting [2] is 0.517 µM [rising, single point].

Turning to `COc1ccc(S(=O)(=O)N2CCN(C3CCCCCCC3)CC2)cc1`, the cell number change was 5.11% and 101%. Also, the half-maximal activity concentration (AC50) under setting [1] was 0.651 µM [falling, single point]. Also, the AC50 under setting [2] is 29.1 µM [falling, partial curve] and 580 nM [falling, single point].

As for `Cc1cccc(NC(=O)C(C)Sc2nnc(-c3cccnc3)o2)c1` (stereo not drawn), the cell number change is -3.13%. The AC50 under setting [2] was 0.92 µM [rising, full curve, poor fit].

Take `O=C(Nc1cccc(C(F)(F)F)c1)c1cccnn1`: the cell number change was 5.55%. For the same compound, the AC50 under setting [2] is 23.1 µM [rising, single point].

Take `Cn1c(=O)c2c(nc(N3CCCCCC3)n2CCSc2nc3ccccc3o2)n(C)c1=O`: the cell number change was -14.7%. Besides, under setting [2], the AC50 was 0.82 µM [falling, full curve, poor fit].

`Cc1onc(-c2ccccc2)c1C(=O)NC(=S)NNC(=O)c1cccnc1`: the cell number change is -41.9%. The half-maximal activity concentration (AC50) under setting [1] is 25.9 µM [falling, partial curve].

Consider `C=CCn1c(NCCO)nc2c1c(=O)n(C)c(=O)n2C`, for which the cell number change was 6.91%. Also, the half-maximal activity concentration (AC50) under setting [2] was 5.17 µM [falling, single point].

In the case of `O=C(N/N=C/c1ccccc1)c1cc[n+]([O-])cc1`, the cell number change is 41.1%. For the same compound, under setting [2], the AC50 is 18.4 µM [rising, partial curve].

As to `NS(=O)(=O)c1ccc(S(=O)(=O)N(Cc2ccccc2F)CC2CCCO2)cc1` (stereo not drawn), the cell number change amounted to 2.35%. Besides, the AC50 under setting [2] is 0.731 µM [falling, single point].

Turning to `COCCCn1c(SCC(=O)O)nc2cc(OC)c(OC)cc2c1=N`, the cell number change is -38.2%. Also, under setting [1], the half-maximal activity concentration (AC50) was 6.51 µM [falling, single point].

Regarding `CC(=O)c1c(C)[nH]c(C(=O)NCc2ccccc2)c1C`, the cell number change is -14.2%.

As for `COC(=O)c1cc(S(=O)(=O)N2CCCCCC2)c[nH]1`, the cell number change was found to be 13.5%.

With `CCc1ccc(N2C(=O)CC(NNc3nc4ccccc4s3)C2=O)cc1` (stereo not drawn), the cell number change is -20.1%. The AC50 under setting [2] was 18.4 µM [falling, single point].

Regarding `CNc1c(NC(=O)C2CCC(C)CC2)c(=O)oc2ccccc12` (stereo not drawn), the cell number change was -16.8%. Moreover, the concentration at half-maximal activity (AC50) under setting [2] was 6.51 µM [rising, single point].
